Primary screen of a compound library

Protein sequences, listed by entry. Tags and fused reporters are not part of them.
UniProt E9BF75, entry or part of it: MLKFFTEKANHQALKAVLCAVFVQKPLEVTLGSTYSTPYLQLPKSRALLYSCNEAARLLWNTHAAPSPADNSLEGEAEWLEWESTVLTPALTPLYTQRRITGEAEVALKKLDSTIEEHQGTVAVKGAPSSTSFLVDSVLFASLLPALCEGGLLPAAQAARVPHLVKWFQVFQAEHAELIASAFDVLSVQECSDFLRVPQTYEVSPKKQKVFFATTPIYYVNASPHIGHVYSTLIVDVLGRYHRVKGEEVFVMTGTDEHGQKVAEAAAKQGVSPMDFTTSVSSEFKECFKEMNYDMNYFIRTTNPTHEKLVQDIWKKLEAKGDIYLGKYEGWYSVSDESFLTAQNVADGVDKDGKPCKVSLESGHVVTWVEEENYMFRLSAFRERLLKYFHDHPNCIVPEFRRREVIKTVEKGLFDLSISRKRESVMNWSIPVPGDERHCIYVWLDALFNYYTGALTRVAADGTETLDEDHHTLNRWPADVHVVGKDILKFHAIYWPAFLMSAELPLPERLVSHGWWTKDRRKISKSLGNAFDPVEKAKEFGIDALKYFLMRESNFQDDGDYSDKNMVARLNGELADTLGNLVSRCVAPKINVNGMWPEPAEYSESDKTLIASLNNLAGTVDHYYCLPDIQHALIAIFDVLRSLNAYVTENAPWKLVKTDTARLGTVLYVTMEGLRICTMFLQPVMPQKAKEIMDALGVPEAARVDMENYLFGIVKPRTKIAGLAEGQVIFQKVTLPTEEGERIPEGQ

Measurements from “University of Dundee, Small-Polar-MMV Screening Library” (2021), ChEMBL document CHEMBL3988442.

Mtb heat-shock: 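Assay on Mycobacterium tuberculosis, filed only as a heat shock assay from Cornell; the read-out is not stated. The concentration is filed as 10 mM, unlikely as a test dose, so the dose is not known. The record gives no direction; compounds that gave an IC50 in retests scored well above the rest, so higher reads as stronger inhibition. Size under these conditions: about 69,000 compounds, about 930 of them at 50% or above in at least one test.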
Mtb growth Cornell: 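Whole-cell assay for inhibitors of Mycobacterium tuberculosis growth, labelled Cornell in the record; the read-out is not stated. The concentration is filed as 10 mM, unlikely as a test dose, so the dose is not known. The record gives no direction; compounds strong in two other growth screens of this library score well above the rest, so higher reads as stronger inhibition. Size under these conditions: about 53,000 compounds, about 900 of them at 50% or above in at least one test.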
LdMetRS: 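Methionyl-tRNA synthetase (putative), Leishmania donovani (UniProt E9BF75). Primary screen of methionyl-tRNA synthetase; the read-out is not stated. The test concentration is not given. The values are filed as inhibition. Size under these conditions: about 68,000 compounds, about 24 of them at 50% or above in at least one test.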

All values are in %. The controls that fix the scale are not given in the record; negative values are as filed. This is an unselected part of the compounds tested. A dash means the value is not listed here; it may have been measured.

Compound	Mtb heat-shock	Mtb growth Cornell	LdMetRS
Cc1cnc(N2CC3(CCN(Cc4cccnc4)C3)C2)nc1	-	-	10.64
[H][C@]12CC[C@]([H])(CN(C(=O)c3ccncc3)C1)N(C(=O)COCC)C2	5.766	-29.23	-
CN(C)C(=O)CO[C@@H]1CN(Cc2ccccc2F)[C@@H]2CCCO[C@@H]21	-	-	6.989
CCC(=O)N1CCC2(CC1)CC(CC(=O)N(C)C)c1ccc(F)cc12 (configuration not stated)	39.9	3.498	2.346
NCC(=O)N1CCCC(O)(CN2CCN(c3ccccc3)CC2)CC1 (configuration not stated)	6.287	-54.79	3.675
CS(=O)(=O)N1CCC(c2nnc(CN3CCCC3)n2C2CC2)CC1	2.326	-	-
Cc1cnn(CC2CCCCN2C(=O)c2ccc3nnc(C)n3c2)c1 (configuration not stated)	-10.61	-	9.028
CN(C)C(=O)NCc1nnc2n1CCN(Cc1cccs1)C2	-1.914	27.36	9.42
Cc1ccc(NC(=O)NC(C)c2nc[nH]n2)cc1 (configuration not stated)	4.931	11.41	18.96
Cn1nnnc1SCC1Cc2ccccc2O1 (configuration not stated)	4.512	-3.366	2.332
Cc1ccccc1Oc1ncccc1CNC(=O)Cn1cccnc1=O	-23.13	-	4.181
Cc1noc(C)c1C(=O)N1CCCC1(C)C(=O)NC1CCCC1 (configuration not stated)	4.002	-3.819	13.12
CN(CC1(CO)CC1)C(=O)C1CCC(=O)N(Cc2ccc(Cl)cc2)C1 (configuration not stated)	9.345	-	10.96
COc1ccc2c(c1)CC(C1CCOCC1)N(C(=O)c1ccnn1C)C2 (configuration not stated)	0.2227	13.18	16.82
O=C1CC2(CCN(Cc3ccc4cccc(O)c4n3)CC2)CN1	-10.94	18.72	3.194
Cc1nnc(N2CC[C@H](OCC3CC3)[C@@H](Cc3ccccc3)C2)s1	-	-	15.48
COCCN1CCN(Cc2cccc(C(=O)N(C)C)c2)CC1C (configuration not stated)	-16.44	-	2.797
CCc1cc(NC(=O)C2CCCN(C(=O)c3ccncc3)C2)[nH]n1 (configuration not stated)	-5.05	-20.54	17.07
O=C(c1cccn2ccnc12)N1CCCN(c2cccnn2)CC1	1.464	-	6.944
O=C(c1ccncc1Cl)N1CCN(Cc2ccco2)C(CCO)C1 (configuration not stated)	-6.764	-21.34	10.84
COc1ccc(CN2CCn3c(C(=O)N(C)C)cnc3C2)cc1.O=C(O)C(F)(F)F	-1.543	11.39	-
N#Cc1cc(F)ccc1CN1CCCC1Cn1cccn1 (configuration not stated)	-3.214	-	26.26
N#Cc1cccc(N2CCCC3(CNCCO3)C2)n1 (configuration not stated)	-	-	10.51
CCNc1nnc(CCn2nc(C)c(Br)c2C)s1	5.896	29.93	14.21
Cc1ccc(N2CC[C@H]3OCC[C@@]3(C(=O)NCC3CC3)C2)nn1	-	-	7.726
CNCC(=O)N1CCCC1c1cncc(Oc2ccc(F)cc2)n1 (configuration not stated)	-	-	19.77
CN(C)[C@H]1CN(C(=O)CCCc2ccc(F)cc2)C[C@@H]1C1CC1	13.68	13.73	8.696
Cc1cnc(CN(C)C2CCN(CC(=O)Nc3c(C)n[nH]c3C)C2)o1 (configuration not stated)	14.09	-32.51	7.042
[H][C@@]12CN(c3cc(OC)ncn3)C[C@@H](C(=O)NC3CC3)[C@]1([H])CCO2	-34.82	4.067	-
O=C(O)C(F)(F)F.O=C(O)C(F)(F)F.[H][C@@]12CCCO[C@]1([H])[C@H](N1CCOCC1)CN(C(=O)c1ccc(C)nc1)C2	-15.64	22.14	-
O=C(c1cccc2ncccc12)N1CCC(Nc2cccnn2)CC1	-1.45	-	13.86
CCOC(=O)c1n[nH]cc1-c1cncn1CCn1nc(C)c(Cl)c1C	20.76	4.869	10.97
O=C(O)C(F)(F)F.[H][C@]12CN(CCN(C)C)C(=O)[C@@]1([H])CN(c1ccccc1)C2	16.99	-22.49	-
CC(C)C(NC(=O)NCCNc1ccccn1)c1cccs1 (configuration not stated)	4.553	4.958	16.6
CN(CCOc1cccc(Cl)c1)Cc1nnc(C(C)(C)C)o1	-9.645	-	9.669
CN(Cc1ccc(F)cc1)C(=O)CN1CCCCC1Cn1cncn1 (configuration not stated)	-4.329	-	9.938

Repeated from the top, 3 entries:

- Cc1cnc(N2CC3(CCN(Cc4cccnc4)C3)C2)nc1 : LdMetRS: 10.64%
- [H][C@]12CC[C@]([H])(CN(C(=O)c3ccncc3)C1)N(C(=O)COCC)C2 : Mtb heat-shock: 5.766%; Mtb growth Cornell: -29.23%
- CN(C)C(=O)CO[C@@H]1CN(Cc2ccccc2F)[C@@H]2CCCO[C@@H]21 : LdMetRS: 6.989%